This is one part of the list. Values are raw readings; no control value is given beside them.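 In the initial screen, polymyxin B was used at a concentration that permeabilizes Salmonella's outer membrane but not its inner membrane. Maximum growth was set by DMSO wells with or without polymyxin B. Since plates varied, data were ranked per plate, and compounds giving the lowest OD600 advanced as hits.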
Tested on: Salmonella enterica serovar Typhimurium SL1344
Test: bacterial growth OD600 after 18 h with compound and polymyxin B; higher = more bacterial growth (less inhibition)
Settings: 50 µM, Mueller-Hinton broth

Cn1nc(C(=O)N2CCCC(CCc3ccccc3F)C2)ccc1=O (stereo unspecified)
bacterial growth OD600 (polymyxin B 0.75 µg/mL): 0.859

OCCOc1ccc(CN2CCOc3ccc(C(O)Cc4ccccc4)cc3C2)cc1 (stereo unspecified)
bacterial growth OD600 (polymyxin B 0.75 µg/mL): 0.721

COc1ccccc1CCC(=O)Nc1cnn(CC(=O)N2CCC(c3ccccc3Cl)C2)c1 (stereo unspecified)
bacterial growth OD600 (polymyxin B 0.75 µg/mL): 0.904

C=CCC(=O)N1CCC(Oc2ccc(C(=O)NCCc3ccccc3)cc2)CC1
bacterial growth OD600 (polymyxin B 1 µg/mL): 0.906

Cc1cc(C)n(CCC(=O)NC2CCCN(c3ncccn3)C2)n1 (stereo unspecified)
bacterial growth OD600 (polymyxin B 1 µg/mL): 1.05

Cc1c(-c2ccc(F)cc2)[nH]c2ccc(CNC(=O)C(C)(C)O)cc12
bacterial growth OD600 (polymyxin B 0.75 µg/mL): 0.178

CN1CCN(c2nc3nonc3nc2NCc2cccs2)CC1c1ccccc1 (stereo unspecified)
bacterial growth OD600 (polymyxin B 1 µg/mL): 1.08

CCOc1ccccc1CN1CCC(CCC(=O)Nc2ccc(OC)cc2OC)CC1
bacterial growth OD600 (polymyxin B 0.75 µg/mL): 0.817

CCCc1ccc2oc(C(=O)N3CCCC(C(=O)c4cccnc4)C3)c(C)c2c1 (stereo unspecified)
bacterial growth OD600 (polymyxin B 0.75 µg/mL): 0.343

C=C(C)CNC(=O)c1oc2ccc(CCC)cc2c1C
bacterial growth OD600 (polymyxin B 1 µg/mL): 0.431

C=CCS(=O)(=O)N1CCCC(Cc2ccccc2)(C(=O)OCC)C1 (stereo unspecified)
bacterial growth OD600 (polymyxin B 1 µg/mL): 0.875

COCCn1cnc2cc(NC(=O)C3CCCCC3)cc(C(=O)N3CCCC(OC)C3)c21 (stereo unspecified)
bacterial growth OD600 (polymyxin B 0.75 µg/mL): 0.882

CCCS(=O)(=O)N1C[C@H]2OC(=O)N(CCc3cccc(Cl)c3)[C@H]2C1
bacterial growth OD600 (polymyxin B 1 µg/mL): 0.9

Cc1ccccc1N1CCN(C2CCCN(C(=O)c3cccc(F)c3)C2)CC1 (stereo unspecified)
bacterial growth OD600 (polymyxin B 1 µg/mL): 0.728

Cc1ncc2c(c1CNS(=O)(=O)c1ccsc1)CCN(C(=O)Cc1ccccc1Cl)C2
bacterial growth OD600 (polymyxin B 0.75 µg/mL): 0.717

Cc1cccc(CN2CCC(n3nccc3NC(=O)c3ccc4c(c3)OCO4)CC2)n1
bacterial growth OD600 (polymyxin B 1 µg/mL): 0.91

CO[C@H]1[C@H](NC(=O)c2ccccn2)c2ccccc2C12CCN(C(=O)[C@@H](O)c1ccccc1)CC2
bacterial growth OD600 (polymyxin B 0.75 µg/mL): 0.816

Cc1ccccc1CCN1CCCC(CN(C)C(=O)c2csc(C(C)C)n2)C1 (stereo unspecified)
bacterial growth OD600 (polymyxin B 1 µg/mL): 0.623

O=C(CC(c1cccc(O)c1)c1ccccc1Cl)N1CCOCC1 (stereo unspecified)
bacterial growth OD600 (polymyxin B 1 µg/mL): 0.782

O=C(NCC1CCCN(C(=O)c2ccc(F)c(F)c2)C1)c1cccc2ccccc12 (stereo unspecified)
bacterial growth OD600 (polymyxin B 1 µg/mL): 0.909

CS(=O)(=O)N1CCC(Oc2cccc(C(=O)NC3Cc4ccccc4C3)c2)CC1
bacterial growth OD600 (polymyxin B 1 µg/mL): 0.854

O=C(CN1Cc2ccccc2OC(c2ccccc2F)C1)N1CCCCC1c1ccccn1 (stereo unspecified)
bacterial growth OD600 (polymyxin B 0.75 µg/mL): 0.043

Cc1cc(C)cc(CN2CCC(N3CCCC(C(=O)NC4CC4)C3)CC2)c1 (stereo unspecified)
bacterial growth OD600 (polymyxin B 0.75 µg/mL): 0.841

COc1cccc(CN2CCCC(c3nc(-c4ccncc4)ncc3-c3ccccc3C)C2)c1OC (stereo unspecified)
bacterial growth OD600 (polymyxin B 0.75 µg/mL): 0.994

COc1cc(OC)cc(C(=O)NCC2CCCN(Cc3cnn(C)c3C)C2)c1 (stereo unspecified)
bacterial growth OD600 (polymyxin B 1 µg/mL): 0.943

CCC(C)CN1CCCC(c2[nH]ncc2CC(C)C)C1 (stereo unspecified)
bacterial growth OD600 (polymyxin B 0.75 µg/mL): 0.809

CCOC(=O)C1(Cc2cccc(Cl)c2)CCCN(C(=O)CCSC)C1 (stereo unspecified)
bacterial growth OD600 (polymyxin B 1 µg/mL): 0.701

CCOC(=O)N1CCN(C(=O)c2ccc(N3CCC(NCCN4CCOCC4)CC3)cc2)CC1
bacterial growth OD600 (polymyxin B 0.75 µg/mL): 0.834

COc1ccc(C(=O)NC2CC2)c(OC2CCN(Cc3nc(C)c[nH]3)CC2)c1
bacterial growth OD600 (polymyxin B 0.75 µg/mL): 0.846

COc1ccc(CNC(=O)CCC2CCCN(Cc3cccc(O)c3)C2)c(OC)c1 (stereo unspecified)
bacterial growth OD600 (polymyxin B 0.75 µg/mL): 0.792

Cc1ccc2c(c1)CN(CCC(=O)NCC(C)(C)CO)CC(C)O2 (stereo unspecified)
bacterial growth OD600 (polymyxin B 0.75 µg/mL): 0.779
